Experimental data: PubChem BioAssay (NCATS)
Where “and” joins values, the source holds several entries; their conditions need not be identical. Equal entries are not always repeated. This is one part of the list. Further columns of the screen follow, without active or inactive calls. Most of these compounds were active or inconclusive in the main read-out, so they are no random draw. Potencies come from curve fits of mixed quality, noted in brackets.

experiment: qHTS Assay for Inhibitors of PDE-IV (AID 607); conditions: HEK293 ACTOne CNG channel cells, membrane potential fluorescence; measured here: parental cell counter-screen
In short: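 Cell-based read-out of cAMP via a modified cyclic nucleotide-gated channel and membrane potential dye (535/590 nm) in HEK293 cells expressing PDE4 endogenously. Compounds tested up to 22.9 uM final; 100 uM RO 20-1724 reference.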

Q: With `S=C(S)O[C@@H]1C[C@@H]2C[C@H]1[C@@H]1CCC[C@H]21` as the compound, how does the AC50 read?
A: 12.6 µM [rising, partial curve]

Q: Which AC50 does the source give for `Cc1cccc(CNc2nc(-c3c(C)noc3C)nc3ccccc23)c1` here?
A: 12.6 µM [rising, single point]

Q: With `COC(=O)[C@@H](NC(=O)c1cc(-c2ccccc2)nc2ccccc12)c1ccccc1` as the compound, how does the AC50 read?
A: 15.8 µM [rising, partial curve, poor fit]

Q: For `Cc1noc(C)c1C(=O)N1CCC[C@@]2(CCN(C(=O)Nc3cccc(F)c3)C2)C1`, which AC50 is on record?
A: 3.98 µM [rising, single point]

Q: For `CN(C/C=C\c1ccccc1)Cc1cccc2ccccc12`, which AC50 is on record?
A: 7.94 µM [rising, partial curve]

Q: For `Clc1ccc([C@H](Cn2ccnc2)OCc2c(Cl)cccc2Cl)c(Cl)c1`, which AC50 is on record?
A: 10 µM [rising, single point]

Q: Which AC50 does the source give for `COc1ccc(NC(=O)N2CCCC3(CCN(C(=O)c4c(C)noc4C)CC3)C2)cc1` here?
A: 0.631 µM [rising, single point]

Q: For `CC(C)NC(=O)N1CCC2(CC1)CCN(C(=O)c1cc(C(F)(F)F)cc(C(F)(F)F)c1)CC2`, which AC50 is on record?
A: 3.98 µM [rising, single point]

Q: For `COc1ccc(C(=O)N2CCC[C@@]3(CCN(Cc4ccc(C#N)cc4)C3)C2)cc1`, which AC50 is on record?
A: 12.6 µM [rising, single point]

Q: Which AC50 does the source give for `CCC[C@@H]1C[C@@]1(CCC)C(NS(=O)(=O)c1cccc2cccnc12)c1ccc(Cl)cc1` (stereo not given in full) here?
A: 0.794 µM [rising, partial curve, poor fit]

Q: With `CCCC[C@@H]1C[C@H]1C(NC(=O)c1cccnc1)c1ccc(Cl)cc1` (stereo not given in full) as the compound, how does the AC50 read?
A: 15.8 µM [rising, single point]

Q: For `COC(=O)[C@@]1(Cc2ccc(F)cc2)[C@H]2c3cc(C(=O)N(C)C)n(CC4CC4)c3C[C@H]2CN1C(=O)c1ccccc1`, which AC50 is on record?
A: 3.98 µM [rising, single point]

Q: Which AC50 does the source give for `CCCC[C@@H]1C[C@H]1C(NC(=O)Cc1ccccc1)c1ccc(Cl)cc1` (stereo not given in full) here?
A: 10 µM [rising, partial curve]

Q: With `CCC/C=C(\CCC)C(NP(=O)(c1ccccc1)c1ccccc1)c1ccc(-c2ccccc2)cc1` (stereo not given) as the compound, how does the AC50 read?
A: 10 µM [rising, single point]

Q: For `O[C@@](CCN1CCCCC1)(c1ccccc1)C1CCCCC1`, which AC50 is on record?
A: 10 µM [rising, partial curve] and 7.94 µM [rising, partial curve]
